Laboratory results as given in the supplement of paper PMC4604168 (melanoma cell lines).
This is one part of the list. Many values rest on one well or one pass, so single values are uncertain.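 The apoptosis fraction was the count of cleaved-PARP antibody-stained nuclei relative to all DNA-stained nuclei, imaged in 1,536-well plates. Screening doses were set so most cells survived, and baseline and induced cleaved-PARP levels vary greatly across cell lines.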

Columns and labels:
Assay in all cases: cleaved PARP positive nuclei fraction relative to DMSO control; melanoma cells; higher = more apoptosis
Conditions in all cases: library dose: low library concentration; 72 h
501Mel = test system: 501Mel
A101D = test system: A101D
A2058 = test system: A2058
A375 = test system: A375
C32 = test system: C32
CBRC013 = test system: CBRC013 (line from a melanoma biopsy)
CBRC014 = test system: CBRC014 (line from a melanoma biopsy)
CBRC016 = test system: CBRC016 (line from a melanoma biopsy)
CBRC017 = test system: CBRC017 (line from a melanoma biopsy)
CBRC034 = test system: CBRC034 (line from a melanoma biopsy)
COLO792 = test system: COLO792
COLO800 = test system: COLO800
COLO829 = test system: COLO829
G361 = test system: G361
IPC-298 = test system: IPC-298
IST-MEL1 = test system: IST-MEL1
LB2518-MEL = test system: LB2518-MEL
LOXIMVI = test system: LOXIMVI

| SMILES | cleaved PARP positive nuclei fraction (501Mel) [%] | cleaved PARP positive nuclei fraction (A101D) [%] | cleaved PARP positive nuclei fraction (A2058) [%] | cleaved PARP positive nuclei fraction (A375) [%] | cleaved PARP positive nuclei fraction (C32) [%] | cleaved PARP positive nuclei fraction (CBRC013) [%] | cleaved PARP positive nuclei fraction (CBRC014) [%] | cleaved PARP positive nuclei fraction (CBRC016) [%] | cleaved PARP positive nuclei fraction (CBRC017) [%] | cleaved PARP positive nuclei fraction (CBRC034) [%] | cleaved PARP positive nuclei fraction (COLO792) [%] | cleaved PARP positive nuclei fraction (COLO800) [%] | cleaved PARP positive nuclei fraction (COLO829) [%] | cleaved PARP positive nuclei fraction (G361) [%] | cleaved PARP positive nuclei fraction (IPC-298) [%] | cleaved PARP positive nuclei fraction (IST-MEL1) [%] | cleaved PARP positive nuclei fraction (LB2518-MEL) [%] | cleaved PARP positive nuclei fraction (LOXIMVI) [%] |
| --- | --- | --- | --- | --- | --- | --- | --- | --- | --- | --- | --- | --- | --- | --- | --- | --- | --- | --- |
| C[C@]1(c2nc3c(C(N)=O)cccc3[nH]2)CCCN1 [Veliparib] + COc1cc(N2CCC(N3CCN(C)CC3)CC2)ccc1Nc1ncc(Cl)c(Nc2ccccc2S(=O)(=O)C(C)C)n1 [NVP-TAE684] (first compound 1.4 µM, partner dose 0.08 µM) | 118 | 122 | 220 | 82.6 | 216 | 155 | 98.7 | 165 | 92.7 | 84.7 | 159 | 70.8 | 82.2 | 109 | 163 | 106 | 77.6 | 199 |
| C#Cc1cccc(Nc2ncnc3cc(OCCOC)c(OCCOC)cc23)c1 [erlotinib] + O=C(Nc1ccccc1)c1cc([N+](=O)[O-])ccc1Cl [GW9662] (first compound 0.8 µM, partner dose 2 µM) | 57 | 189 | 118 | 227 | 57.9 | 62.1 | 111 | 76.6 | 85 | 183 | 129 | 64 | 109 | 38.6 | 159 | 62.7 | 101 | 62.4 |
| Cc1ccc(NC(=O)c2cccc(N(C)C)c2)cc1NC(=O)c1ccc(O)cc1 + Cn1cc(/C=C2\C(=O)Nc3cccnc32)c2ccccc21 [GW441756] (first compound 2 µM, partner dose 0.4 µM) | 82.7 | 169 | 78.2 | 127 | 34.8 | 76 | 137 | 108 | 116 | 45.5 | 174 | 71.4 | 132 | 167 | 155 | 43.7 | 379 | 71.9 |
| CC(C)(C)c1cnc(CSc2cnc(NC(=O)C3CCNCC3)s2)o1 + c1cc(-c2cnn3cc(-c4ccc(OCCN5CCCCC5)cc4)cnc23)ccn1 [Dorsomorphin] (first compound 0.01 µM, partner dose 0.4 µM) | 41 | 122 | 120 | 235 | 113 | 182 | 110 | 76.1 | 198 | 40.2 | 96.5 | 94.7 | 140 | 103 | 54.7 | 98.2 | 86.2 | 92.8 |
| OCCn1cc(-c2cnc3nnn(Cc4ccc5ncccc5c4)c3n2)cn1 + COc1ccc(-c2ccc3c(N4CCOCC4)nc(N4C[C@@H](C)O[C@@H](C)C4)nc3n2)cc1CO [KU0063794] (first compound 1 µM, partner dose 0.02 µM) | 92.2 | 114 | 120 | 76.6 | 88.5 | 314 | 90.1 | 82.7 | 152 | 854 | 135 | 110 | 109 | 139 | 66.7 | 43.3 | 89.5 | 12.6 |
| CO[C@@H]1[C@H](N(C)C(=O)c2ccccc2)C[C@H]2O[C@]1(C)n1c3ccccc3c3c4c(c5c6ccccc6n2c5c31)C(=O)NC4 [Midostaurin] + CCCCCCCCCCCC1=C(O)C(=O)C=C(O)C1=O [Embelin] (first compound 0.08 µM, partner dose 1.2 µM) | 64.7 | 194 | 17.9 | 58 | 158 | 191 | 106 | 93.6 | 46.2 | 113 | 127 | 93.9 | 62.3 | 149 | 39.4 | 200 | 77.2 | 73.8 |
| C#Cc1cccc(Nc2ncnc3cc(OCCOC)c(OCCOC)cc23)c1 [erlotinib] + Oc1nc(-c2ccc(C(F)(F)F)cc2)nc2c1CSCC2 [XAV939] (first compound 0.8 µM, partner dose 2 µM) | 95.4 | 89.7 | 71.2 | 111 | 149 | 158 | 91.5 | 82.4 | 106 | 53.1 | 211 | 35.2 | 101 | 130 | 117 | 91.6 | 84.8 | 68.5 |
| CO[C@@H]1[C@H](N(C)C(=O)c2ccccc2)C[C@H]2O[C@]1(C)n1c3ccccc3c3c4c(c5c6ccccc6n2c5c31)C(=O)NC4 [Midostaurin] + O=C(O)C(=O)Nc1sc2c(c1C(=O)O)CCNC2 [TCS401] (first compound 0.08 µM, partner dose 1.66667 µM) | 67 | 337 | 40.6 | 81.4 | 137 | 126 | 73.6 | 143 | 65.6 | 82.9 | 118 | 322 | 107 | 120 | 64.4 | 142 | 41.4 | 67.8 |
| Cn1nnc2c(C(N)=O)ncn2c1=O [temozolomide] + Cn1cc(/C=C2\C(=O)Nc3cccnc32)c2ccccc21 [GW441756] (first compound 2 µM, partner dose 0.4 µM) | 84.7 | 42.6 | 262 | 144 | 126 | 227 | 116 | 65.7 | 87.2 | 87 | 131 | 58.2 | 116 | 93.2 | 91.9 | 60 | 53.9 | 43.2 |
